Data as given in US20080214646A1 (priority 2005, published 2008).
Some entries share one result that the patent states for a list of compounds. Some compounds share one range, which may span the group rather than tell each member.

Experiments:
[1] = system: carrageenan-induced rat paw edema; experiment: Carrageenan-induced rat paw edema anti-inflammatory assay; format: in vivo; details: oral
gastric ulcers = experiment: Acute ulcerogenesis assay (gastric ulcer index); format: in vivo, rats; details: equivalent amount to 30 mg of indomethacin/kg, oral, 6 h, rat
Procedure: All drugs were suspended and administered in 1.7 mL of a 1% methylcellulose solution. Control rats received oral administration of vehicle (1.7 mL of 1.0% methylcellulose solution). Food, but not water, was removed 24 h before administration of test compounds. Six hours after oral administration of the drug, rats were euthanized in a CO2 chamber and their stomachs were removed, cut out along the greater curvature of the stomach, gently rinsed with water and placed on ice. The number and the length of ulcers were determined using a magnifier lens. […] The average overall length (in mm) of individual ulcers in each tissue was designated as the “ulcer index”. Each experimental group consisted of four rats.

Row | SMILES | fold less potent relative to the parent drug (ID50) [1] | Ulcer index (gastric ulcers)
1 | CC(=O)Oc1ccccc1C(=O)OCON=[N+]([O-])N(C)C [Compound 12, O^2(Acetylsalicyloyloxymethyl)-1-(N,N-dimethylamino)diazen-1-ium-1,2-diolate] | 1.1-1.4 fold | –
2 | COc1ccc2c(c1)c(CC(=O)OCON=[N+]([O-])N1CCCC1)c(C)n2C(=O)c1ccc(Cl)cc1 [Compound 15, O^2-[2-(1-(4-Chlorobenzoyl)-5-methoxy-2-methyl-1H-indol-3-yl)acetoxymethyl]-1-(pyrrolidin-1-yl)diazen-1-ium-1,2-diolate] | – | 0.7-3.0 mm
3 | COc1ccc2c(c1)c(CC(=O)OCON=[N+]([O-])N(C)C)c(C)n2C(=O)c1ccc(Cl)cc1 [Compound 16, O^2-[2-(1-(4-Chlorobenzoyl)-5-methoxy-2-methyl-1H-indol-3-yl)acetoxymethyl]-1-(dimethylamino)diazen-1-ium-1,2-diolate] | 1.1-1.4 fold | –
4 | CC(=O)Oc1ccccc1C(=O)OCON=[N+]([O-])N1CCCC1 [Compound 11, O^2(Acetylsalicyloyloxymethyl)-1-(pyrrolidin-1-yl)diazen-1-ium-1,2-diolate] | 1.1-1.4 fold | –
